Laboratory results reported in EP4624485A1, “PEPTIDE THAT TARGETS MACROPHAGES AND USES THEREOF” (Consejo Superior De Investigaciones Científicas, priority 2024, dated 2025).
Not every detail of the peptide structures is certain; ends, links or a residue may be inferred. Bridge positions count the residues as written; N and C are the ends. Ends that are not written are not given here. Peptide text beside a SMILES is read from it. * marks the point of attachment. 5FAM = O=C1OC2(c3ccc(O)cc3Oc3cc(O)ccc32)c2ccc(C(=O)*)cc21; Ahx = NCCCCCC(=O)O

Chains of the proteins cited; added tags and fusions are not shown. Residues count along the entry.
UniProt P02769, 25-607: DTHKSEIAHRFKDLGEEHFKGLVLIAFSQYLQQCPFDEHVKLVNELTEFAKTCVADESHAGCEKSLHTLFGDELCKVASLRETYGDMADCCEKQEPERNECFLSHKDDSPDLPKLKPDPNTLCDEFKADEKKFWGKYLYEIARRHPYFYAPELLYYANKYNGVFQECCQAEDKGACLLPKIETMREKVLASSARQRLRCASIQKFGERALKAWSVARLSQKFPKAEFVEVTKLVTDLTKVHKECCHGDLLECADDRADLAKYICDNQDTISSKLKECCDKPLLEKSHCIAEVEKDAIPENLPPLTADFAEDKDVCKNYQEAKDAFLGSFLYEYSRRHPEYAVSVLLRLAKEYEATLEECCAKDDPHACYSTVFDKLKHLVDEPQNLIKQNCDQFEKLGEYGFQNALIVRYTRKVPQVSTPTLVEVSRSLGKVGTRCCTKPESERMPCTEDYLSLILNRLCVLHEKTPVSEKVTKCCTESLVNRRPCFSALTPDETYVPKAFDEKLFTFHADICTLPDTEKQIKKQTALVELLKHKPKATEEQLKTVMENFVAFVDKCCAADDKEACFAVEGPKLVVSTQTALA

Legend:
[1] = system: CD206+ TAMs; assay: Homing to CD206+ TAMs in 4T1 breast tumor-bearing mice (immunostaining for FAM and CD206); assay type: in vivo; settings: 30 nmoles, 24 h
[2] = biological target: T1, Bovine Serum Albumin (BSA) (Bos taurus, UniProt P02769); assay: QCM binding to control multilayer PAH/BSA; settings: peptides 10µM in PBS
T1 construct: purchased Sigma-Aldrich A7906

[3] = biological target: T2, human recombinant CD206 (Homo sapiens, UniProt P22897); assay: Quartz Crystal Microbalance (QCM) binding to PAH/CD206 multilayer; settings: for dissociation upon washing with PBS / dissociation constant: PAH/CD206 multilayer; for binding to PAH/CD206 / dissociation constant: peptides 10µM in PBS; for dissociation constant: washing with PBS, curve fitting
T2 construct: purchased R&D systems 2534-MR-050/CF
T2 sequence (P22897 19-1456): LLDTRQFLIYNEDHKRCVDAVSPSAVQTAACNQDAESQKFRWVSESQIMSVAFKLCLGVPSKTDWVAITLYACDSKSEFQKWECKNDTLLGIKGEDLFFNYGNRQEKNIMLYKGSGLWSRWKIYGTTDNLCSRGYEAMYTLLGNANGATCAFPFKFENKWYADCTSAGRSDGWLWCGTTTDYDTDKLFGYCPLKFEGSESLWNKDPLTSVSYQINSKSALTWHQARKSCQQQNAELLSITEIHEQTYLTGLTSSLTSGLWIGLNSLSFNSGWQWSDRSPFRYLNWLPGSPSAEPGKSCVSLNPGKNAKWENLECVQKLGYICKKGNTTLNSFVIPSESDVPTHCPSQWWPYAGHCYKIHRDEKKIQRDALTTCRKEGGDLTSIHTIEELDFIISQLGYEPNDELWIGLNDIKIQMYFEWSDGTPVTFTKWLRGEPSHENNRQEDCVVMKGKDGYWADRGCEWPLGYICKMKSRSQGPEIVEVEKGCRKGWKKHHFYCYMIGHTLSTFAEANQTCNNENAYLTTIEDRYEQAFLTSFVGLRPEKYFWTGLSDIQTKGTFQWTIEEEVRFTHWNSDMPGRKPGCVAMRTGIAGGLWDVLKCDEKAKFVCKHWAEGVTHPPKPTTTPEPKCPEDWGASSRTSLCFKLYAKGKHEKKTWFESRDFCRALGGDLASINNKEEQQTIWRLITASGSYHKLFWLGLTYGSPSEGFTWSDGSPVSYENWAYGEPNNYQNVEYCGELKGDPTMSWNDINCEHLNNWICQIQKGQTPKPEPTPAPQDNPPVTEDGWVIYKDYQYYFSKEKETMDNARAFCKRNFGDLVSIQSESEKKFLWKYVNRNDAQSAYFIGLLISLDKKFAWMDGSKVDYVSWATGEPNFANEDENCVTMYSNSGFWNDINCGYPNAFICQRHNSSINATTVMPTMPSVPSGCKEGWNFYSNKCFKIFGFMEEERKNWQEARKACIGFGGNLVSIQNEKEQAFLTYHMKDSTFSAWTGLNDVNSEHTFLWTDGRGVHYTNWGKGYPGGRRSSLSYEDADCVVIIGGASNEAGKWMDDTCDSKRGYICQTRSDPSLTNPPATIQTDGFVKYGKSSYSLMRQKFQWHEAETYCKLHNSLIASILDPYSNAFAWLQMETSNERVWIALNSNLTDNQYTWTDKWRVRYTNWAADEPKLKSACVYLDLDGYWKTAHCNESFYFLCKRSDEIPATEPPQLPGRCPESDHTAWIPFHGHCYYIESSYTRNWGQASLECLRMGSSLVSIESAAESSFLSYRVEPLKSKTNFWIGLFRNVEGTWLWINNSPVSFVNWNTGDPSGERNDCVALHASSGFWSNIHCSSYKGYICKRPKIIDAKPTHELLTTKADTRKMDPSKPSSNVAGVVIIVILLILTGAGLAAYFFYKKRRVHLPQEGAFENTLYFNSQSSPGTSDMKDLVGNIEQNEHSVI
Text: To confirm the capacity of MACTIDE to bind to CD206, we evaluated binding to recombinant CD206 included in a viscoelastic film, using Quartz Crystal Microbalance (QCM). QCM is a powerful technique used to study label-free ligand-receptor interactions in solution (Baltus, R. E. et al., Langmuir 2007, 23 (7), 3880-3885), wherein peptide binding and dissociation is sensed through a mass increase or decrease on a resonating crystal surface functionalized with the receptor. Here, we evaluated the mass changes of MACTIDE when binding and dissociating in solution to CD206 immobilized on a viscoelastic film, deposited on a gold-modified quartz crystal resonating at 5 MHz. Recombinant CD206 was immobilized using layer-by-layer (LBL) self-assembly, an electrostatically-driven adsorption of charged polyelectrolytes on a layer of polyallylamine (PAH) (Flexer, V., et al., Anal. Chem. 2006, 78 (2), 399-407).
The Quartz Crystal Microbalance (QCM) used was QCM200 system from Stanford Research Systems (Sunnyvale, CA, USA). The quartz crystals used have 5MHz resonant frequency and are deposited with a layer of Cr/Au (Cat # Q100RX1, pin 6-613, Stanford Research Systems). The crystal was mounted on the cell, washed with isopropanol, ethanol and mQ water. Then, it was incubated with 20mM Mercapto-propanesulfonate (MPS, Cat #251682, Sigma-Aldrich) in 10mM H2SO4 for 30 minutes, washed with mQ and then incubated with a 10µM (in monomer) of Poly (allylamine hydrochloride, Mw: 50000, PAH, Cat # 283223, Sigma-Aldrich) in mQ at pH 8.5 during 10 min and later washed with mQ. Then, a baseline with 500µL of mQ at pH 8 was recorded, the measurement was paused and then 5µL of a 1mg/mL solution in PBS were added (human recombinant CD206, Cat # 2534-MR-050/CF from R&D systems, reconstituted with 50µL of mQ); final concentration of CD206 in the cell: 0.01 mg/mL. Of note, the isoelectric point of CD206 is 6.3. For PAH-BSA multilayer, Bovine Serum Albumin (BSA, Cat # A7906, Sigma-Aldrich) was deposited, after measuring a baseline in mQ, at a concentration of 0.01mg/mL in mQ for 10 minutes, and then washed with mQ. For peptides, 500µL of PBS were placed in the cell and the baseline was recorded, the measurement was then paused and 50µL of a 100µM solution of peptides in PBS were gently deposited on the cell and the measurement was resumed. Then, the measurement was paused, the solution removed and replaced with 500µL of new PBS and the measurement resumed. The association and dissociation curves were fitted using TraceDrawer software (Ridgeview Instruments AB), to obtain the association constant ka, the dissociation constant kd and the affinity constant KD.

Compound | CD206+ TAM targeting ([1]; administered intravenously) | CD206+ TAM targeting ([1]; administered orally) | CD206/FAM colocalization ([1]; i.p. administration) | FAM intensity per CD206+ TAM, fold higher than FAM-mUNO ([1]; i.p. administration) | binding to the control multilayer PAH/BSA [2] | dissociation constant, fold slower than mUNO ([3]; MACTIDE versus mUNO) | dissociation upon washing with PBS [3] | binding to PAH/CD206 [3] | dissociation constant [3]
CC[C@H](C)[C@@H]1NC(=O)[C@@H]2CCCN2C(=O)[C@@H]2CCCN2C(=O)[C@H]([C@@H](C)CC)NC(=O)[C@H](CO)NC(=O)[C@H](CCCCN)NC(=O)[C@H]([C@@H](C)O)NC(=O)[C@@H](NC(=O)CNC(=O)CCCCCNC(=O)c2ccc3c(c2)C(=O)OC32c3ccc(O)cc3Oc3cc(O)ccc32)CSSC[C@@H](C(=O)N[C@@H](CO)C(=O)N2CCC[C@H]2C(=O)NCC(=O)N[C@@H](C)C(=O)N[C@@H](CCCCN)C(=O)O)NC1=O [FAM-MACTIDE] ({5FAM-Ahx}-GCTKSIPPICSPGAK-OH; disulfide 2-10) | showed CD206+ TAM targeting | targeted CD206+ TAMs | 80% | 10 fold | – | – | – | – | –
C[C@H](NC(=O)CNC(=O)[C@@H]1CCCN1C(=O)[C@H](CO)NC(=O)[C@H](CS)NC(=O)CCCCCNC(=O)c1ccc2c(c1)C(=O)OC21c2ccc(O)cc2Oc2cc(O)ccc21)C(=O)N[C@@H](CCCCN)C(=O)O [FAM-mUNO, reference compound] ({5FAM-Ahx}-CSPGAK-OH) | low CD206+ TAM targeting | – | 80% | – | – | – | – | – | –
CC[C@H](C)[C@@H]1NC(=O)[C@@H]2CCCN2C(=O)[C@@H]2CCCN2C(=O)[C@H]([C@@H](C)CC)NC(=O)[C@H](CO)NC(=O)[C@H](CCCCN)NC(=O)[C@H]([C@@H](C)O)NC(=O)[C@@H](NC(=O)CN)CSSC[C@@H](C(=O)N[C@@H](CO)C(=O)N2CCC[C@H]2C(=O)NCC(=O)N[C@@H](C)C(=O)N[C@@H](CCCCN)C(=O)O)NC1=O [MACTIDE, GCTKSIPPICSPGAK] (H-GCTKSIPPICSPGAK-OH; disulfide 2-10) | – | – | – | – | did not bind | 30 fold | incompletely and slowly dissociated | bound to PAH/CD206 | 0.00025 s⁻¹
CSPGAK [mUNO, CSPGAK, reference compound] | – | – | – | – | did not bind | – | complete and faster dissociation kinetics than MACTIDE | showed binding | 0.0087 s⁻¹
